Results are given in words; binding and its absence hold for the method and conditions named. Some results given as binding are weak or reduced against the parent protein; the word gives no strength.
What was measured:
[1] = target: T1, mouse IL-22 (mouse) (UniProt Q9JJY9); test: ELISA on coated antigen (1 ug/ml), antibody at 100 ng/ml, detection with anti-hIgG-HRP, OD450
T1 sequence (looked up): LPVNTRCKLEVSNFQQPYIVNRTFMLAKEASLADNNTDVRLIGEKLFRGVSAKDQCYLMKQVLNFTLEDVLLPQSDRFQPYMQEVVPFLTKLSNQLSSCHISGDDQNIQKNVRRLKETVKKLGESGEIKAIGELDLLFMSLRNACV

[2] = target: T2, human IL-22 (human) (UniProt Q9GZX6); test: as above
T2 sequence (looked up): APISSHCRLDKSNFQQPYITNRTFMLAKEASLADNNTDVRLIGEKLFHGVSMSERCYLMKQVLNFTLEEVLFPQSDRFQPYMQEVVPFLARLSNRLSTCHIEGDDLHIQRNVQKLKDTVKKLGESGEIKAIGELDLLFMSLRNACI

B1: CPE-LC-E049K (antibody, V domains shown)
VH: QVQLVQSGAEVKKPGASVKVSCKASGYIFTSYWIHWIRQPPGKGLEWIGRIYPGTGNTYYNEKFKGRVTISADKSISTAYLQWSSLKASDTAMYYCARSYDSSCAYWGQGTLVTVSS
VL: AIQLTQSPSSLSASVGDRVTITCSASSSVSYMHWYLQKPGQSPQLLIYKTSKLASGVPSRFSGSGSGTDFTFTISSLEAEDAATYYCQQWSSNPYITFGQGTKVEIKR
binding [1]: binds | binding [2]: binds
